Reference: patent US9506068B2, “Pain treatment using ERK2 inhibitors” (Cornell University, priority 2008, dated 2016)
Some of these results come from one statement about several compounds together. Some ranges recur; such a range may be that of the whole group of compounds.

Tested on: human ERK2
Assay: Western blot of transfected HEK293 cells: ERK2
Type: cell-based

| Substance | reduction of human ERK2 expression |
| --- | --- |
| siRNA #1: human ERK2 siRNA (1833-1851) GCAGGAGCUUGUGGAAAUAUU, expressed from the rAAV vector | 70-80% |
| siRNA #3: human ERK2 siRNA (357-375) GUGCUCUGCUUAUGAUAAUUU, expressed from the rAAV vector | 70-80% |
| siRNA #2: human ERK2 siRNA (884-902) GCUGCAUUCUGGCAGAAAUUU, expressed from the rAAV vector | 70-80% |
